Our source for the binding values is publication PMC11525194.

The target in one assay is T1, FREE1 (A. thaliana) (UniProt Q9ASS2).
T1 sequence: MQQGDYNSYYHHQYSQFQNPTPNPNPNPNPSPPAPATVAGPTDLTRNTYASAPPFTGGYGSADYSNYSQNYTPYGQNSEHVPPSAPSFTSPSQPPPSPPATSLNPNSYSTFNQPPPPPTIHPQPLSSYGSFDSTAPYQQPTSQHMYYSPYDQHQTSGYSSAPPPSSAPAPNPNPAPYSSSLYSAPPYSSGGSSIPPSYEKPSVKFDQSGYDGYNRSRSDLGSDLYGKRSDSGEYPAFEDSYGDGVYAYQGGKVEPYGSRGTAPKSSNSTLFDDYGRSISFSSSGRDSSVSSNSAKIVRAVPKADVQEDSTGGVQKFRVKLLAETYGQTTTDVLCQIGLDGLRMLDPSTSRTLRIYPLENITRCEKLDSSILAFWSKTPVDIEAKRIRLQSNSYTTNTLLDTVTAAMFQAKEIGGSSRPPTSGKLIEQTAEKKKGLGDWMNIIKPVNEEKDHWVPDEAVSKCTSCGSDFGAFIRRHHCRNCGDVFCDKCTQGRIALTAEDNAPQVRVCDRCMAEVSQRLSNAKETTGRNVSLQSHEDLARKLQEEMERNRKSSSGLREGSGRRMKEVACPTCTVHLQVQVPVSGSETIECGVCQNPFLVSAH
Description: two-hybrid; Matchmaker Gold Y2H system, constructs co-transformed pairwise into yeast strain AH109; growth on SD/−Trp−Leu−His−Ade with 5 mM 3-AT.

For assay [1], the target named is T2, FREE1 (purified, condensing) (A. thaliana) (UniProt Q9ASS2).
T2 sequence: T1 sequence
As to the kind of experiment: membrane flotation assay; proteins (100 nM) incubated 5 min at room temperature with PI3P-containing SUVs, floated on an OptiPrep gradient (100,000g, 2 h); membrane-bound VPS23 in the top fraction by immunoblot, with or without condensates of FREE1 variants; both purified. For orientation: Immunoblotting shows a protein as a band on a membrane.

These are yes or no findings as the source states them, for the method shown. Binding can be weak; no strength is given.

VPS23A (A. thaliana): the binding entry with FREE1 (A. thaliana) was “binds”.
With “VPS23A (mCherry labelled, purified) (A. thaliana)”, the binding result in assay [1] is listed as “binds”.
